Counter-ions that a name gives are not always drawn. The list shows a part of the results. Single values are uncertain here, since repeats match poorly.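 Human fetal ventral-midbrain neural progenitor line ReNCell VM, differentiated without mitogens. Images stained for doublecortin (early neurons) or tyrosine hydroxylase (dopaminergic neurons) were scored by blinded raters against untreated wells (0 = no change). Repeats and both raters were averaged, and compounds averaging 2 or higher were picked as hits for retesting.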
Tests used:
ReNCell VM [1] = test: neuronal differentiation score (DCX+ cell fraction vs untreated, manual image score) (score (-3 to 3)); higher = more neuronal differentiation; conditions: 2 uM, 2 weeks
ReNCell VM [2] = test: dopaminergic neuron differentiation score (TH+ cell fraction vs untreated, manual image score) (score (0 to 3)); higher = more TH+ dopaminergic neuron differentiation; conditions: 2 uM, 4 weeks, BDNF 10 ng/ml + GDNF 10 ng/ml

`O=C(O)c1cc(=O)c2cccc(O)c2[nH]1` [xanthurenic acid] was tested, and the neuronal differentiation score (ReNCell VM [1]; library: Natural) was inactive: -1 and the “dopaminergic neuron differentiation score” value (ReNCell VM [2]; library: Natural) was inactive: 0.

For `CCN(CC)CCOC(=O)C(c1ccccc1)C1CCCCC1` (configuration not stated), the neuronal differentiation score (ReNCell VM [1]; library: Spectrum) was inactive: 0 and the “dopaminergic neuron differentiation score” value (ReNCell VM [2]; library: Spectrum) was inactive: 0.

`O=C(O)[C@H]1CC[C@@](C(=O)O)(c2ccccc2)c2ccccc21` [1,2,3,4-tetrahydro-1-phenyl-1,4-naphthalenedicarboxylic acid] was tested, and the neuronal differentiation score (ReNCell VM [1]; library: Natural) was inactive: 0 and the “dopaminergic neuron differentiation score” value (ReNCell VM [2]; library: Natural) was inactive: 0.

With `Cc1ccc(C(=O)c2ccc(CC(=O)O)n2C)cc1` the neuronal differentiation score (ReNCell VM [1]; library: Spectrum) was inactive: 0 and the “dopaminergic neuron differentiation score” value (ReNCell VM [2]; library: Spectrum) was inactive: 0.

`CC[C@]1(O)C[C@@H]2CN(CCc3c([nH]c4ccccc34)[C@@](C(=O)OC)(c3cc4c(cc3OC)N(C)[C@H]3[C@@](O)(C(=O)OC)[C@H](OC(C)=O)[C@]5(CC)C=CCN6CC[C@]43[C@@H]65)C2)C1` was tested, and the neuronal differentiation score (ReNCell VM [1]; library: Spectrum) was inactive: 0 and the “dopaminergic neuron differentiation score” value (ReNCell VM [2]; library: Spectrum) was inactive: 0.

`CN1CC(=O)N2[C@H](c3ccc4c(c3)OCO4)c3[nH]c4ccccc4c3C[C@@H]2C1=O` was tested, and the neuronal differentiation score (ReNCell VM [1]; library: Spectrum) was inactive: 0 and the “dopaminergic neuron differentiation score” value (ReNCell VM [2]; library: Spectrum) was inactive: 0.

With `NC(=O)CNCCC(c1ccccc1)c1ccccc1` [N-(3,3-Diphenylpropyl)glycinamide] the neuronal differentiation score (ReNCell VM [1]; library: LOPAC) was inactive: 0 and the “dopaminergic neuron differentiation score” value (ReNCell VM [2]; library: LOPAC) was inactive: 0.

In the case of `CS(=O)(=O)c1ccc(C2=C(c3ccccc3)C(=O)OC2)cc1`, the neuronal differentiation score (ReNCell VM [1]; library: Spectrum) is reported as inactive: 0 and the “dopaminergic neuron differentiation score” value (ReNCell VM [2]; library: Spectrum) is reported as inactive: 0.

For `OCCOCCN1CCN(C(c2ccccc2)c2ccc(Cl)cc2)CC1` (configuration not stated) [Hydroxyzine dihydrochloride], the neuronal differentiation score (ReNCell VM [1]; library: Prestwick) was inactive: 0 and the “dopaminergic neuron differentiation score” value (ReNCell VM [2]; library: Prestwick) was inactive: 0.

In the case of `CSc1ccc2c(c1)C(N1CCN(C)CC1)Cc1ccccc1S2` (configuration not stated), the neuronal differentiation score (ReNCell VM [1]; library: Spectrum) is reported as inactive: 0 and the “dopaminergic neuron differentiation score” value (ReNCell VM [2]; library: Spectrum) is reported as inactive: 0.

With `O=C(O)Cc1ccc(-c2ccccc2)cc1` the neuronal differentiation score (ReNCell VM [1]; library: Spectrum) was inactive: 0 and the “dopaminergic neuron differentiation score” value (ReNCell VM [2]; library: Spectrum) was inactive: 0.

`CCOc1ccc(NC(C)=O)cc1` was tested, and the neuronal differentiation score (ReNCell VM [1]; library: Spectrum) was inactive: 0 and the “dopaminergic neuron differentiation score” value (ReNCell VM [2]; library: Spectrum) was inactive: 0.

For `C[C@H]1NC(=O)NC1=O` [Methylhydantoin-5-(D)], the neuronal differentiation score (ReNCell VM [1]; library: Prestwick) was inactive: 0 and the “dopaminergic neuron differentiation score” value (ReNCell VM [2]; library: Prestwick) was inactive: 0.

For `COC1=C[C@@H](C)[C@@H]2C[C@H]3OC(=O)C[C@H]4C(C)=C(OC)C(=O)[C@H]([C@@]2(C)C1=O)[C@@]34C` [quassin], the neuronal differentiation score (ReNCell VM [1]; library: Natural) was inactive: 0 and the “dopaminergic neuron differentiation score” value (ReNCell VM [2]; library: Natural) was inactive: 0.

In the case of `CCCCOC(=O)c1ccc(N)cc1` [Butamben], the neuronal differentiation score (ReNCell VM [1]; library: Prestwick) is reported as inactive: 0 and the “dopaminergic neuron differentiation score” value (ReNCell VM [2]; library: Prestwick) is reported as inactive: 0.

In the case of `C=C1/C(=C\C=C2/CCC[C@]3(C)[C@@H]([C@H](C)/C=C/[C@@H](O)C4CC4)CC[C@@H]23)C[C@@H](O)C[C@@H]1O` [Calcipotriol], the neuronal differentiation score (ReNCell VM [1]; library: Tocriscreen) is reported as inactive: 0 and the “dopaminergic neuron differentiation score” value (ReNCell VM [2]; library: Tocriscreen) is reported as inactive: 0.

`N[C@H](CO)C(=O)O` [D-Serine] was tested, and the neuronal differentiation score (ReNCell VM [1]; library: LOPAC) was inactive: 0 and the “dopaminergic neuron differentiation score” value (ReNCell VM [2]; library: LOPAC) was inactive: 0.

For `CC(NCCC(c1ccccc1)c1ccccc1)c1ccccc1` (configuration not stated), the neuronal differentiation score (ReNCell VM [1]; library: Spectrum) was inactive: 0 and the “dopaminergic neuron differentiation score” value (ReNCell VM [2]; library: Spectrum) was inactive: 0.

For `O=S(=O)(c1ccccc1)N(CC(F)(F)F)c1ccc(C(O)(C(F)(F)F)C(F)(F)F)cc1`, the neuronal differentiation score (ReNCell VM [1]; library: Tocriscreen) was inactive: 0 and the “dopaminergic neuron differentiation score” value (ReNCell VM [2]; library: Tocriscreen) was inactive: 0.

For `C=CC(C)(O)CC1C(C)(O)CCC2C(C)(C)CCCC21C` (configuration not stated), the neuronal differentiation score (ReNCell VM [1]; library: Natural) was inactive: 0 and the “dopaminergic neuron differentiation score” value (ReNCell VM [2]; library: Natural) was inactive: 0.

In the case of `O=C(O)C[C@H](O)C[C@H](O)/C=C/c1c(C2CC2)nc2ccccc2c1-c1ccc(F)cc1`, the neuronal differentiation score (ReNCell VM [1]; library: Spectrum) is reported as inactive: 1 and the “dopaminergic neuron differentiation score” value (ReNCell VM [2]; library: Spectrum) is reported as inactive: 0.

`O=C(OCCN1CCOCC1)C1(c2ccccc2)CCCCC1` was tested, and the neuronal differentiation score (ReNCell VM [1]; library: LOPAC) was inactive: 0 and the “dopaminergic neuron differentiation score” value (ReNCell VM [2]; library: LOPAC) was inactive: 1.

`O=c1cc[nH]c(=S)[nH]1` was tested, and the neuronal differentiation score (ReNCell VM [1]; library: Spectrum) was inactive: 0 and the “dopaminergic neuron differentiation score” value (ReNCell VM [2]; library: Spectrum) was inactive: 0.

With `CCc1c(C)[nH]c2c1C(=O)C(CN1CCOCC1)CC2` (configuration not stated) the neuronal differentiation score (ReNCell VM [1]; library: Spectrum) was inactive: 0 and the “dopaminergic neuron differentiation score” value (ReNCell VM [2]; library: Spectrum) was inactive: 0.

In the case of `CCc1ccc(OCc2ccccc2C(=O)Nc2ccc3nc(C)cc(N)c3c2)cc1`, the neuronal differentiation score (ReNCell VM [1]; library: Tocriscreen) is reported as inactive: 0 and the “dopaminergic neuron differentiation score” value (ReNCell VM [2]; library: Tocriscreen) is reported as inactive: 0.

In the case of `CCCCCCCCCCCCCCCC(=O)C(F)(F)F`, the neuronal differentiation score (ReNCell VM [1]; library: Tocriscreen) is reported as inactive: 0 and the “dopaminergic neuron differentiation score” value (ReNCell VM [2]; library: Tocriscreen) is reported as inactive: 0.

Source: the supplement of paper PMC4635364
